Assay results published in patent US20220362186A1, “Application of p-Hydroxyphenylpropionic Acid to Prepare Medicine for Preventing and Treating Respiratory Tract Infection” (SUN YAT-SEN UNIVERSITY, priority 2020, published 2022).
For at least one compound, name, drawing or mass did not settle the structure.

Experiments:
[1] = system: lipopolysaccharide-induced mouse acute lung injury model; assay: Lipopolysaccharide-induced mouse acute lung injury model; assay type: in vivo, Balb/c mice
Method: Experimental method: the mice were acclimatized for 72 hours in an SPF animal room with constant temperature and constant humidity after purchase. The mice were randomly divided into four groups, that is, a blank control group (n=10), a model control group (n=10), a positive control medicine naringin group (n=11) and a p-hydroxyphenylpropionic acid group (n=11). The naringin group (180 mg/kg) and the p-hydroxyphenylpropionic acid group (51.6 mg/kg) were continuously subjected to intragastric administration once a day, for three days respectively; and the blank control group and the model control group were administered intragastrically with equivoluminal normal saline. The mice were anesthetized through intraperitoneal injection of 0.5 ml of pentobarbital sodium (65 mg/kg) three hours after the last intragastric administration. […] After the protein concentration was measured by a BCA protein concentration kit, the sample loading quantity was adjusted to 50 μg of total protein and 100 μl of total volume, and the content of myeloperoxidase (MPO), the activity of the MPO and the activity of lactic dehydrogenase (LDH) in the lung tissue sample were measured by kits. […]

chronic smoked mice = assay: Chronic lung injury caused by smoking (chronic smoked mice); assay type: in vivo, Balb/c mice; conditions: 15 and 60 mg/kg intragastric
Klebsiella pneumoniae = assay: Antibacterial experiment in vitro, broth microdilution (CLSI); assay type: cell-based
Staphylococcus aureus = assay: as above; assay type: cell-based

O=C(O)CCc1ccc(O)cc1 [HPPA, p-Hydroxyphenylpropionic acid] was tested, and the “Effect on lung inflammation, pulmonary edema, neutrophil infiltration and cell necrosis in ALI (in words)” value ([1]; 51.6 mg/kg intragastric, P<0.01 vs model control) was “effectively inhibit the progress of lung inflammation in the ALI and alleviate pulmonary edema, local neutrophil infiltration and cell necrosis”, the “Effect compared with the naringin (in words)” value ([1]; HPPA 51.6 mg/kg vs naringin 180 mg/kg, P<0.01) was “significant optimal effect in relieving inflammatory cell invasion and alleviating apoptosis and necrosis” and the “Effect on inflammatory factor levels in lung tissue (in words)” value (chronic smoked mice) was “significantly inhibit the increase of the TNFα, IL-6, LTB4, IL-1β and IL-18 levels”. The “Effect on leukocyte infiltration in alveolar lavage fluid (in words)” value (chronic smoked mice) was “significantly reduce the infiltration of the neutrophil, lymphocytes and monocytes”, the “Effect on lung function of chronic smoked mice (in words)” value (chronic smoked mice) was “significantly inhibit the reduction of the Cchord and FEV50/FVC of the mice and delay the degradation of the lung function” and the “In-vitro bacteriostasis effect (in words)” value (Klebsiella pneumoniae) was “significant inhibition effect”. The “In-vitro bacteriostasis effect (in words)” value (Staphylococcus aureus) was “significant inhibition effect”.
